# Measurements reported in PubChem BioAssay AID1224828 (NIAID, 2016).
# Screen: 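Knock-downs that increase or decrease LPS-induced p65 nuclear translocation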 (primary screen)
# Cells: mouse RAW264.7 G9 macrophage reporter cells (GFP-p65, Tnf promoter-mCherry)
# Reagents: siRNA pool against mouse genes, 100 nM
# Timing: 2 days siRNA transfection, then 40 min LPS before fixation
# Conditions: LPS (Salmonella minnesota R595) at 10 ng/ml
# Read-out: 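Imaged p65 nuclear translocation ratio, normalised to the plate median, converted to robust z-scores and averaged across two replicates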
# Reading the numbers: p65 translocation robust z-score: higher = more nuclear NF-kappaB p65 after LPS than the plate median; nuclear/cytoplasmic p65 ratio: higher = more nuclear NF-kappaB p65
# Call rule: 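Active if robust z is above 3.3 (negative regulators) or below -1.56, the Tlr4 control median (positive regulators); activity score 50 or more; control wells not called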
# Calls: active = hit (p65 shift raised or lowered); inactive = no clear change
# The deposit covers about 17,000 reagents; below is an unselected part. Of all reagents, 762 (4.5%) got an active call. 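Active calls include both raised and lowered p65 entry, mostly lowered; wells with fewer than 50 cells lack a z-score.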 Raw values vary from plate to plate and are shown uncorrected.
gene,p65 translocation robust z-score,"nuclear/cytoplasmic p65 ratio, rep 1","nuclear/cytoplasmic p65 ratio, rep 2",low cell count flag,activity call
Ranbp6 (RAN binding protein 6),-0.17,1.33,1.22,enough cells to score,inactive
Ranbp3l (RAN binding protein 3-like),0.25,1.44,1.59,enough cells to score,inactive
Tram1 (translocating chain-associating membrane protein 1),0.44,1.6,1.54,enough cells to score,inactive
Itgam (integrin alpha M),0.62,1.53,1.49,enough cells to score,inactive
A430072C10Rik (RIKEN cDNA A430072C10 gene),,1.54,1.74,fewer than 50 cells per well; well left out of scoring,inactive
Cd4 (CD4 antigen),0.5,1.83,1.4,enough cells to score,inactive
Rbm26 (RNA binding motif protein 26),-0.44,1.34,1.8,enough cells to score,inactive
Jazf1 (JAZF zinc finger 1),0.36,1.67,1.73,enough cells to score,inactive
Arf5 (ARF GTPase 5),1.26,1.74,1.74,enough cells to score,inactive
"Sugt1 (SGT1, suppressor of G2 allele of SKP1 (S. cerevisiae))",,1.34,1.14,fewer than 50 cells per well; well left out of scoring,inactive
Heatr1 (HEAT repeat containing 1),-0.07,1.54,1.87,enough cells to score,inactive
Oas1b (2'-5' oligoadenylate synthetase 1B),,1.71,0,fewer than 50 cells per well; well left out of scoring,inactive
Dtl (denticleless E3 ubiquitin protein ligase),0.94,1.74,1.77,enough cells to score,inactive
Ppie (peptidylprolyl isomerase E (cyclophilin E)),,1.49,1.16,fewer than 50 cells per well; well left out of scoring,inactive
"Cacna1s (calcium channel, voltage-dependent, L type, alpha 1S subunit)",-0.84,1.44,1.54,enough cells to score,inactive
Epha1 (Eph receptor A1),1.02,1.73,1.61,enough cells to score,inactive
Rps27a (ribosomal protein S27A),,1.33,1.06,fewer than 50 cells per well; well left out of scoring,inactive
Slbp (stem-loop binding protein),0.69,1.68,1.62,enough cells to score,inactive
1700028K03Rik (RIKEN cDNA 1700028K03 gene),0.12,1.41,1.31,enough cells to score,inactive
Arhgef1 (Rho guanine nucleotide exchange factor 1),-0.49,1.49,1.59,enough cells to score,inactive
"Zmynd10 (zinc finger, MYND domain containing 10)",,1.22,1.19,fewer than 50 cells per well; well left out of scoring,inactive
"Grm3 (glutamate receptor, metabotropic 3)",-0.53,1.41,1.53,enough cells to score,inactive
Crx (cone-rod homeobox),0.53,1.61,1.39,enough cells to score,inactive
"Kras (Kras proto-oncogene, GTPase)",-1.47,1.28,1.19,enough cells to score,inactive
Apoa2 (apolipoprotein A-II),-0.02,1.63,1.6,enough cells to score,inactive
Tanc2,1.47,1.44,1.78,enough cells to score,inactive
Mag (myelin-associated glycoprotein),1.7,2.07,1.72,enough cells to score,inactive
Or2t26 (olfactory receptor family 2 subfamily T member 26),0.94,1.6,1.68,enough cells to score,inactive
Adamts18 (ADAM metallopeptidase with thrombospondin type 1 motif 18),-0.68,1.55,1.48,enough cells to score,inactive
Fbxo25 (F-box protein 25),0.52,1.51,1.46,enough cells to score,inactive
L2hgdh (L-2-hydroxyglutarate dehydrogenase),0.44,1.73,1.82,enough cells to score,inactive
"Setdb1 (SET domain, bifurcated 1)",-0.19,1.36,1.7,enough cells to score,inactive
Slc6a17,-0.9,1.45,1.62,enough cells to score,inactive
Fras1 (Fraser extracellular matrix complex subunit 1),-1.29,1.48,1.22,enough cells to score,inactive
Thnsl2 (threonine synthase-like 2 (bacterial)),1.05,1.57,1.35,enough cells to score,inactive
Traf7 (TNF receptor-associated factor 7),1.1,1.6,1.31,enough cells to score,inactive
"Plcd1 (phospholipase C, delta 1)",1.46,1.67,1.63,enough cells to score,inactive
Slc22a1,,1.33,1.13,fewer than 50 cells per well; well left out of scoring,inactive
Gtse1 (G two S phase expressed protein 1),0.98,1.53,1.53,enough cells to score,inactive

The list goes on; the last 7 above are carried over.
gene,p65 translocation robust z-score,"nuclear/cytoplasmic p65 ratio, rep 1","nuclear/cytoplasmic p65 ratio, rep 2",low cell count flag,activity call
Slc6a17,-0.9,1.45,1.62,enough cells to score,inactive
Fras1 (Fraser extracellular matrix complex subunit 1),-1.29,1.48,1.22,enough cells to score,inactive
Thnsl2 (threonine synthase-like 2 (bacterial)),1.05,1.57,1.35,enough cells to score,inactive
Traf7 (TNF receptor-associated factor 7),1.1,1.6,1.31,enough cells to score,inactive
"Plcd1 (phospholipase C, delta 1)",1.46,1.67,1.63,enough cells to score,inactive
Slc22a1,,1.33,1.13,fewer than 50 cells per well; well left out of scoring,inactive
Gtse1 (G two S phase expressed protein 1),0.98,1.53,1.53,enough cells to score,inactive
Pdzk1 (PDZ domain containing 1),0.8,1.57,1.5,enough cells to score,inactive
"Tubd1 (tubulin, delta 1)",-0.72,1.5,1.32,enough cells to score,inactive
Hdhd2 (haloacid dehalogenase-like hydrolase domain containing 2),-0.24,1.6,1.55,enough cells to score,inactive
Mrpl27 (mitochondrial ribosomal protein L27),0.32,1.9,1.58,enough cells to score,inactive
Mrpl32 (mitochondrial ribosomal protein L32),-0.86,1.33,1.24,enough cells to score,inactive
Gzmg (granzyme G),0.58,1.5,1.64,enough cells to score,inactive
Mcm3 (minichromosome maintenance complex component 3),-0.8,1.33,1.25,enough cells to score,inactive
Cideb,-0.25,1.41,1.35,enough cells to score,inactive
Ccdc137 (coiled-coil domain containing 137),,1.24,1.51,fewer than 50 cells per well; well left out of scoring,inactive
Usp45 (ubiquitin specific petidase 45),-0.46,1.18,1.28,enough cells to score,inactive
Pitx3 (paired-like homeodomain transcription factor 3),-1.04,1.33,1.29,enough cells to score,inactive
Shtn1 (shootin 1),,1.16,1.1,fewer than 50 cells per well; well left out of scoring,inactive
Clstn3 (calsyntenin 3),0.46,1.55,1.42,enough cells to score,inactive
Rassf5 (Ras association (RalGDS/AF-6) domain family member 5),0.87,1.68,1.6,enough cells to score,inactive
Erich3 (glutamate rich 3),,1.38,1.38,fewer than 50 cells per well; well left out of scoring,inactive
"Dgkg (diacylglycerol kinase, gamma)",0.36,1.67,1.43,enough cells to score,inactive
Txnip (thioredoxin interacting protein),,1.04,1.06,fewer than 50 cells per well; well left out of scoring,inactive
"Pla2g12a (phospholipase A2, group XIIA)",0.78,1.29,1.3,enough cells to score,inactive
Caap1 (caspase activity and apoptosis inhibitor 1),-1.85,1.13,1.28,enough cells to score,active
Stmn3 (stathmin-like 3),-1.78,1.28,1.31,enough cells to score,active
